Paper PMC5080790

By UniProt entry, the sequences of proteins in these tests, tags left out. Where a name states a change or a piece, a line headed by the entry shows the natural chain unless it says otherwise.
UniProt Q9Y466: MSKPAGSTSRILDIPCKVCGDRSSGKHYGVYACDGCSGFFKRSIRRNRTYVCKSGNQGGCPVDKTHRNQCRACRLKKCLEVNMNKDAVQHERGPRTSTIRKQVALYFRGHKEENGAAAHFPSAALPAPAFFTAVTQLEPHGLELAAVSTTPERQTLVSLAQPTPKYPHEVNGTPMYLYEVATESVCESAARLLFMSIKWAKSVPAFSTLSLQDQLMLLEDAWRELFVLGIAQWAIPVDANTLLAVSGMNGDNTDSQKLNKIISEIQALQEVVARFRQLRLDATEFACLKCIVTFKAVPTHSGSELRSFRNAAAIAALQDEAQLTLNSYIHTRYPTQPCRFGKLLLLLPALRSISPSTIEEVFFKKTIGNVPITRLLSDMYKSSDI
UniProt P10275: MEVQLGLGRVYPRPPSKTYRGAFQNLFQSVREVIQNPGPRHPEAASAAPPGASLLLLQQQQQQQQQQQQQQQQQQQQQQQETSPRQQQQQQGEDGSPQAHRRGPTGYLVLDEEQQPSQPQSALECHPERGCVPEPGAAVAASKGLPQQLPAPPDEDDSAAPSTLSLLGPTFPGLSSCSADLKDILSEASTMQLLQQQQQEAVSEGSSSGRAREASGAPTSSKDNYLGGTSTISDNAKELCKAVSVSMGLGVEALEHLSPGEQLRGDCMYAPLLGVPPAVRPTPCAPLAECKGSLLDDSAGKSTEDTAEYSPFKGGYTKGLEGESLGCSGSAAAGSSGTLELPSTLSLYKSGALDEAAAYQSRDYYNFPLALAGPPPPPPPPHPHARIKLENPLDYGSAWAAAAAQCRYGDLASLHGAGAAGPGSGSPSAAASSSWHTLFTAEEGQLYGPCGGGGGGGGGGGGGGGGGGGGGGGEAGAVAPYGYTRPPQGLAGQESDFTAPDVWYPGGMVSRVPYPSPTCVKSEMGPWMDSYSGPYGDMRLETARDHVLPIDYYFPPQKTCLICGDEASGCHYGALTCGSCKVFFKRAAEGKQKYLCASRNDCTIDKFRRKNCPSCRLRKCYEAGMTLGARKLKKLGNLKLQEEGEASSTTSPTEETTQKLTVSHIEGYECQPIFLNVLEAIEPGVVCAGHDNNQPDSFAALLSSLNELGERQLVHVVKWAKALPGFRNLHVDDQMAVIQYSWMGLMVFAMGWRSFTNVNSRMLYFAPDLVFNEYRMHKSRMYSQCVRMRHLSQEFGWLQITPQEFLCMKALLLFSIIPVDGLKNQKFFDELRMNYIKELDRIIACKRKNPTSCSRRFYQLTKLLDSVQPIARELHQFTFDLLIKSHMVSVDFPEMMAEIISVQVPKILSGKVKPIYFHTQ
UniProt Q09472: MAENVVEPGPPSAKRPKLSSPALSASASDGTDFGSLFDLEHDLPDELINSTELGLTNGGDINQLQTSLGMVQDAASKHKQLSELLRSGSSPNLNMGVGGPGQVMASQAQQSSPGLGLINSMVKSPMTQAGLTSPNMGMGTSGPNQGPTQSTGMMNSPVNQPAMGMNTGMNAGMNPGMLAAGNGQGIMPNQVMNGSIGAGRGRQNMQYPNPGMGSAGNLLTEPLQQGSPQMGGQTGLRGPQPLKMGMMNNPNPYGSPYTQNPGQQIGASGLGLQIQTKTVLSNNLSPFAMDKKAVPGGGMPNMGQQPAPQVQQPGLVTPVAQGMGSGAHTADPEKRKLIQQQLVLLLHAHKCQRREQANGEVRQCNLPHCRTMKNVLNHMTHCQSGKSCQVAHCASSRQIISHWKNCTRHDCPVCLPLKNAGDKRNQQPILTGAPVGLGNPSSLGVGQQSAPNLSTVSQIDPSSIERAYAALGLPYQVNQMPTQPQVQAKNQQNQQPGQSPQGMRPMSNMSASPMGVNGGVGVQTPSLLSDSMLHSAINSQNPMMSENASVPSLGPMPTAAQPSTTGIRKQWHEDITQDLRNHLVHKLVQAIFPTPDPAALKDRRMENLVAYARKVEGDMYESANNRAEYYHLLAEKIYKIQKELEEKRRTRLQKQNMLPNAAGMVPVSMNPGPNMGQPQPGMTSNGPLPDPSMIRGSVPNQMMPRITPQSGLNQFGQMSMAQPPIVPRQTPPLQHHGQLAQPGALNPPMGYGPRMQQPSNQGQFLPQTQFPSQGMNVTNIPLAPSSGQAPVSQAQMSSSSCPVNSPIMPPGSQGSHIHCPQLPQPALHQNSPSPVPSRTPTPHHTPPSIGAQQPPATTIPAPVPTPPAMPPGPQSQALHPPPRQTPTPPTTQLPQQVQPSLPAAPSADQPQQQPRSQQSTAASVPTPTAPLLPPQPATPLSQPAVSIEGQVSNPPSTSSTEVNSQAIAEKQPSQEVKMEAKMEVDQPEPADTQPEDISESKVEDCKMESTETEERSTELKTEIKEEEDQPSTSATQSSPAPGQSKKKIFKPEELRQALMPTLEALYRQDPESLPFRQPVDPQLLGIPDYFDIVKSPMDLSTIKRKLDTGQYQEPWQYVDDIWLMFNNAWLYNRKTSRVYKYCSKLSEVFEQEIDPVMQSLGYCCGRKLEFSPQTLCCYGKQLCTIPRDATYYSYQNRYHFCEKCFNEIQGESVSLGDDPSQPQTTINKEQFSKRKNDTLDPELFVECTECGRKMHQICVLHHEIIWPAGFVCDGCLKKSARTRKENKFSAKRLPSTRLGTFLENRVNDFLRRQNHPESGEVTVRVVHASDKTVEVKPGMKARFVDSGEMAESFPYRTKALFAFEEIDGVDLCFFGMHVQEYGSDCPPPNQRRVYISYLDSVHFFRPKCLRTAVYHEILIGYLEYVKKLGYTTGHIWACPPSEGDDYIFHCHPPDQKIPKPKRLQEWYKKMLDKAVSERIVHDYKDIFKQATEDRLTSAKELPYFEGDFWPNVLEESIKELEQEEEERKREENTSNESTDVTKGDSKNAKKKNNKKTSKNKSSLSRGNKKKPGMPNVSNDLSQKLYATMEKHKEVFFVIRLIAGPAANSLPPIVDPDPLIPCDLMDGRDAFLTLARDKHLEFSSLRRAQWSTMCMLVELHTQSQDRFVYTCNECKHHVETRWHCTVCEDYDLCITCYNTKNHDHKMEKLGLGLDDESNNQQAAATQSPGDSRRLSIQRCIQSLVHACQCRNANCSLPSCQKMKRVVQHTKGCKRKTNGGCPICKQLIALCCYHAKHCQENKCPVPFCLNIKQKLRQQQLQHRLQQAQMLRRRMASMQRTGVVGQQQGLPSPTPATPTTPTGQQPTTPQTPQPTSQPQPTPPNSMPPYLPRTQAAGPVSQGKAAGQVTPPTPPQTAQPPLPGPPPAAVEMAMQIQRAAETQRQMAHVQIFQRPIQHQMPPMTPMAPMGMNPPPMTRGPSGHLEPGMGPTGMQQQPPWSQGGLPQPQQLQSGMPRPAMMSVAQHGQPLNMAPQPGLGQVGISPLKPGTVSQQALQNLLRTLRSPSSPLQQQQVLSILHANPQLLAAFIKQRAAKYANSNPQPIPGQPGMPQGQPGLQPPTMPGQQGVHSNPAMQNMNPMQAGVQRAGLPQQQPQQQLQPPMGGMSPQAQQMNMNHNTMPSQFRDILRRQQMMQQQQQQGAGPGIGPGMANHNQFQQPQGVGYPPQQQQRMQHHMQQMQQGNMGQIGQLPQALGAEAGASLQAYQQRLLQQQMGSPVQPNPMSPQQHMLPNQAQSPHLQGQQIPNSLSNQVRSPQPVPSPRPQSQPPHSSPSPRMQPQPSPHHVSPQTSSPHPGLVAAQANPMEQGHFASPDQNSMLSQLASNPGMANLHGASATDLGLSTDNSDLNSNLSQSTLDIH

Tests used:
GST-NR2E1 (human) = GST-NR2E1 (human) (UniProt Q9Y466); test: pull-down; GST or GST fusion from E. coli lysate held on glutathione MagBeads, washed, blocked with 1 % BSA/PBS; HEK293 lysate (0.1 % BSA) with the overexpressed protein for two hours at 4 °C; western blot (anti-FLAG, anti-EGFP, anti-myc); only the target purified
[1] = molecular target: T1, Atro box peptide from atrophin-1 (wild type) (Drosophila); test: peptide or protein array; MARCoNI on Nuclear Receptor PamChip Arrays: peptides immobilised; HEK293 lysate with FLAG-NR2E1LBD (equal amounts, wild type or variant) in TBS with 0.2 % BSA, 0.05 % Tween-20, 50 uM DTT, 2 % DMSO, 25 nM anti-Flag-FITC, 120 cycles (30 s/cycle); further detection with goat anti mouse FITC; three technical replicates; only the target purified
T1 sequence (peptide): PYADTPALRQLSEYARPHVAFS

[2] = molecular target: T2, Mutant Atro box peptide (two leucines to alanines) (Drosophila); test: as above
T2 sequence (peptide): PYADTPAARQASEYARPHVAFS

| Substance | binding (GST-NR2E1 (human)) | binding [1] | binding [2] |
| --- | --- | --- | --- |
| EGFP-tagged androgen receptor (AR-EGFP) (from UniProt P10275 1-920) | binds |  |  |
| Myc-tagged P300 (P300-Myc) (from UniProt Q09472 1-2414) | binds |  |  |
| N-terminal FLAG-tagged NR2E1 ligand-binding domain (FLAG-NR2E1LBD), wild type (from UniProt Q9Y466) (domain or fragment) |  | binds | binds weakly |

These are yes or no findings as the source states them, for the method shown. A result given as binding can be weak or reduced; the word gives no strength. For some of these results: Binding seen in cells or lysates may run through a third protein.
